Measurements: PMC10320395, “Molecular insights into LINC complex architecture through the crystal structure of a luminal trimeric coiled-coil domain of SUN1” (Frontiers in Cell and Developmental Biology, 2023)
No constants are given. Whether binding was seen depends on the method and setting. Where a sequence is shown, tags or fusion partners need not be part of it. Blank lines part the entries; values can stand above or below the binder they belong to.

What was measured:
[1] = target: MBP-SUN1 α1 (MBP fusion of human SUN1 amino-acids 362–401) (human) (UniProt O94901); experiment: condition: only after over-night incubation with 10 mM EDTA; SEC-MALS; MBP-SUN1 α1 at 20 mg/mL after over-night incubation with 10 mM EDTA; Superdex 200 Increase 10/300 GL, 20 mM HEPES pH 7.5, 150 mM KCl, 2 mM DTT; both purified
[2] = target: MBP-SUN1 α1 C376A (human) (UniProt O94901); experiment: SEC-MALS; MBP-SUN1 α1 C376A at 5 mg/mL after purification, and after over-night incubation with 2 mM zinc acetate or 10 mM EDTA; Superdex 200 Increase 10/300 GL, 20 mM HEPES pH 7.5, 150 mM KCl, 2 mM DTT; both purified

- binding [1]: no binding
B1: MBP-SUN1 α1 (MBP fusion of human SUN1 amino-acids 362–401) (domain or fragment, UniProt O94901 362-401, looked up)
chain: MSGVEQQVASLSGQCHHHGENLRELTTLLQKLQARVDQME
notes: human SUN1, Uniprot O94901, amino-acids 362–401 (α1 coiled-coil domain); The uncleaved His-MBP fusion from pMAT11, used to give greater molecular mass resolution in SEC-MALS; theoretical monomer 49 kDa; The His tag probably stays with the MBP (surmise); source: E. coli BL21 (DE3), purified (Ni-NTA, amylose, ion exchange); not shown: MBP, N-terminal, kept

- binding [2]: no binding (tested: 5 mg/mL)
Binder: MSGVEQQVASLSGQAHHHGENLRELTTLLQKLQARVDQME (domain or fragment, UniProt O94901 362-401) [MBP-SUN1 α1 C376A]
